From patent US20240100063A1, “COMBINATION THERAPY OF PD-1 AXIS BINDING ANTAGONISTS AND LRRK2 INHITIBORS” (Hoffmann-La Roche Inc., priority 2020, published 2024)
Some of these results come from one statement about several compounds together.

Tested on: DC2.4 SCR cells
Test: antigen cross-presentation assay on DC2.4 cells (FACS, anti-mouse H-2Kb/[…] antibody)
Type: cell-based
Conditions: overnight administration
Method: Cells were stained with anti-mouse H-2Kb/[…] antibody. […] F) FACS evaluation of human MART-1 T cell proliferation, upon co-culture with human cord blood derived dendritic cells pre-treated with the LRRK2 inhibitor LRRK2-IN-1. All the experiments were performed in triplicates.
Subsequently, we investigate whether the pre-treatment of freshly isolated mouse splenic dendritic cells with increasing concentrations of the compounds can enhance the OT-1 CD8a T cells activation upon co-culture. […] Finally, as for the genetic validation in DC2.4, we challenge the splenic derived dendritic cells treated with the different compounds in a killing assay were we measured the MC38 RFP-OVA cancer cell viability upon 6 days of co-culture with OT-1 CD8a T cells primed by mouse splenic dendritic cells pre-treated with the two LRRK2 inhibitors (FIG. 5-A).

| SMILES | concentration from which dose dependent enhancement of antigen cross-presentation is shown |
| --- | --- |
| CCNc1nc(Nc2cc(F)c(C(=O)N3CCOCC3)cc2OC)ncc1C(F)(F)F [compound 7915, [4-[[4-(ethylamino)-5-(trifluoromethyl)pyrimidin-2-yl]amino]-2-fluoro-5-methoxy-phenyl]-morpholino-methanone] | ≥ 10 nM |
| CNc1nc(Nc2cnn(C3CCN(C4COC4)CC3F)c2Cl)ncc1C(F)(F)F (centres unmarked) [compound 9605, N2-[5-chloro-1-[3-fluoro-1-(oxetan-3-yl)-4-piperidyl]pyrazol-4-yl]-N4-methyl-5-(trifluoromethyl)pyrimidine-2,4-diamine] | ≥ 10 nM |
